Test results: patent publication US8557989B2, “Electrochemical affinity biosensor system and methods” (priority 2003, dated 2013)

Assay: Recycling CV and bipotentiostatic amperometric dose response on interdigitated array (IDA) electrodes

Compound | slope of dose response curve (0-5 μM, planar IDA 750 finger pairs, W and Wg 2 μm, WE1=250 mV, WE2=0 mV) | redox recycling on IDA
O=C(CCCCC1SCC2NC(=O)NC21)NCCCCCC(=O)NCCc1c[n+]([Os]23([Cl])([n+]4ccccc4-c4cccc[n+]42)[n+]2ccccc2-c2cccc[n+]23)c[nH]1 (centres unmarked) [compound 57] | about 126 nA/μM | –
CN1CC[C@]23c4c5ccc(OCCCNC(=O)c6ccc(-c7ccc(C(=O)NCCc8c[n+]([Os]9%10([Cl])([n+]%11ccccc%11-c%11cccc[n+]%119)[n+]9ccccc9-c9cccc[n+]9%10)c[nH]8)cc7)cc6)c4O[C@H]2C(O)C=CC3[C@H]1C5 (some centres unmarked) [osmium morphine conjugate] | – | did not recycle properly
